{
  "source": "PubChem BioAssay AID1508600",
  "about": "(Functional Genomics Laboratory (NCATS/FGL), 2020)",
  "note": "About 3,700 (7%) of roughly 53,000 sequences were called active.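 How the source made its calls: active means gene knockdowns whose robust z-score for IL-1 alpha signal is at least 2 or at most -2, so actives lie on both sides; inactive means the rest.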 The list shows a part of the results.",
  "data": [
    {"experiment": "Components of the Cytosolic LPS Sensing Pathway: Gene Identification via Genome-wide siRNA Screen;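 further: robust z of the log signal after scaling to non-targeting control siRNA wells of the plate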", "conditions": "RAW264.7 macrophages, IL-1a HTRF, actives lie on both sides, screened at 100 nM (by protocol), cells primed 5 h with Pam3CSK4 first", "method_in_brief": "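IL-1a HTRF of supernatants after 24 hour LipidA transfection of Pam3CSK4-primed (5 hours) RAW264.7 cells, 48h post-siRNA transfection (100 nM). Scores: percent of plate negative-control median, then log-based robust z-score.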", "values": [
      {"sequence": "GCCCUUGGGAUAAUUAUUGTT against Tmprss11b", "z-score": "inactive: 0.576"},
      {"sequence": "CCUAAAGUCACAUCUAAGATT against Pum3", "z-score": "inactive: 1.06"},
      {"sequence": "GCAAAUCCCAUGAACAGCUTT against Nvl", "z-score": "active: -2.55"},
      {"sequence": "GGUGGUGAUUCAUCUGUGCTT against Tas2r135", "z-score": "inactive: -0.836"},
      {"sequence": "GGAUGAAACUAUUCAGCACTT against Chml", "z-score": "inactive: -0.635"},
      {"sequence": "GCAUGACAGAGUUAUUCAUTT against Olfr474", "z-score": "inactive: -0.59"},
      {"sequence": "GGAACUGAAACAGUUGGAATT against Tmod2", "z-score": "inactive: -0.00247"},
      {"sequence": "CGACUAUGGUUUAAUCAUCTT against Atp11a", "z-score": "inactive: -1.03"},
      {"sequence": "GCGCAGAGGGAUCAUAGAGTT against Heyl", "z-score": "inactive: 0.326"},
      {"sequence": "CCGAGCAAGGCAUAGAAAATT against Tex24", "z-score": "inactive: -1.12"},
      {"sequence": "GGACGUAUCUUCUUUAAGATT against Immp1l", "z-score": "inactive: 0.45"},
      {"sequence": "GGCACCAUCUACGACUAUGTT against Gpx5", "z-score": "inactive: -0.649"},
      {"sequence": "CCCAGGAUAUAAUUCAACUTT against R3hdm2", "z-score": "inactive: -0.218"},
      {"sequence": "GGUGAAAAUCAUCCAGCGATT against Iqcj", "z-score": "inactive: 0.427"},
      {"sequence": "GCUUUCAUUAAGUCAGAUCTT against Flvcr2", "z-score": "inactive: 1.16"},
      {"sequence": "GGUGAUUGCUGAAGACGAGTT against Fbxw8", "z-score": "inactive: -0.172"},
      {"sequence": "CCAUAUGGCUUGUGGCAGATT against Scn1b", "z-score": "inactive: -0.245"},
      {"sequence": "GCUAGGUGCUGCUACGAAATT against Tex13c3", "z-score": "inactive: -0.0824"},
      {"sequence": "GGAGCUGUAAAGGCUACAATT against Sulf2", "z-score": "active: 4.14"},
      {"sequence": "GCAGCUCCUAAGAAGAUAATT against Samsn1", "z-score": "inactive: -1.77"},
      {"sequence": "GGCCAAACAAGACCCAUCUTT against Ppil2", "z-score": "inactive: -0.621"},
      {"sequence": "CCCUACGUGAGACAUUUGATT against Ankrd53", "z-score": "inactive: -1.23"},
      {"sequence": "GUCUGUAUUCCUAGAUUCCTT against Olfr794", "z-score": "inactive: -0.0923"},
      {"sequence": "GCAAAUUAAGAUGUGCUGATT against Esco2", "z-score": "inactive: -0.749"},
      {"sequence": "GCUAAGGUACAUUUGUAGATT against Cebpd", "z-score": "inactive: 0.218"},
      {"sequence": "GCCAAGAUGGUAUUUCACATT against Defb20", "z-score": "inactive: -1.39"},
      {"sequence": "GCUCCUCCUAUAUGUGAAUTT against Cr2", "z-score": "inactive: 0.535"},
      {"sequence": "GGUGCUGACUCCGACUAAATT against Nhsl1", "z-score": "inactive: 1.2"},
      {"sequence": "CCCAGUAAAUAAGAGUACATT against Treml1", "z-score": "inactive: -1.33"},
      {"sequence": "GGGUAGAUAACAUCUGGACTT against Dgat2", "z-score": "inactive: 0.798"},
      {"sequence": "CCUAUGAUUCAGUGUAUCUTT against Hdac6", "z-score": "inactive: -0.654"},
      {"sequence": "CCCAGUUUCUCUAGGAAUATT against H2ax", "z-score": "inactive: 0.144"},
      {"sequence": "CCAUCAAUCAUCAUCGCCUTT against Slc27a2", "z-score": "inactive: -1.64"},
      {"sequence": "CGAAAGCACACACGUAGAATT against Erdr1", "z-score": "inactive: 0.391"},
      {"sequence": "GGUUCACAAUGGAUUAUGATT against Lrrc25", "z-score": "inactive: -1.68"},
      {"sequence": "GGCCUGAGACUCUCACAGATT against Taf5l", "z-score": "inactive: 0.0833"},
      {"sequence": "CGACCUGGAUAGGUUGUUUTT against Ckap4", "z-score": "inactive: 0.443"},
      {"sequence": "CCGGUUUUAUGCAGUGUGUTT against Taar3", "z-score": "inactive: 0.495"},
      {"sequence": "GGCAUUGUGAAGCUGAAACTT against Ptpn9", "z-score": "inactive: 0.11"},
      {"sequence": "GGUUUCUGGCUUUCCGUAGTT against Erf", "z-score": "inactive: -0.0549"},
      {"sequence": "GGUCCUUACCAUCAAUCCUTT against Pgls", "z-score": "inactive: 0.0794"},
      {"sequence": "GGAAAUGGACAUUGUAUUCTT against Serpina3k", "z-score": "inactive: -1.11"},
      {"sequence": "CGUGGAAGUAAACUCCCUUTT against Zfp112", "z-score": "inactive: 0.342"},
      {"sequence": "GCAAAUGUUCGGUAAUUUGTT against Parp9", "z-score": "inactive: -0.212"},
      {"sequence": "GCACAAGGAUUCUCGCUGUTT against Ext1", "z-score": "inactive: 1.69"},
      {"sequence": "GGUGUUUGACCCUUCUUGCTT against Pqbp1", "z-score": "inactive: 1.64"},
      {"sequence": "CCUGUUUAUAAGUCAGAGATT against Zzz3", "z-score": "inactive: 1.5"},
      {"sequence": "CGGAAAGACGAUGCUCAAUTT against Lztr1", "z-score": "inactive: -0.993"},
      {"sequence": "GGAGCAUUCACAUACUUACTT against Olfr944", "z-score": "inactive: 0.165"},
      {"sequence": "CCAGGUUGAUGAUUUCAACTT against Tbcc", "z-score": "inactive: -1.43"},
      {"sequence": "GGAAGCUGGUUCCUGUUUUTT against Hrk", "z-score": "inactive: -0.194"},
      {"sequence": "GAUUCUUGAGGAAUUUAGCTT against Syncrip", "z-score": "inactive: 1.21"},
      {"sequence": "GCCACGAUUGUUGUCAUGCTT against Rab25", "z-score": "inactive: 0.213"}
    ]}
  ]
}
